Data as given in PubChem BioAssay AID1259308 (NCATS, 2017)

Assay: 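Candidate targets for better recombinant protein yield in mammalian cells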 (primary screen)
Cells: human HEK293 embryonic kidney cells stably expressing firefly luciferase (HEK-CMV-Luc2-Hygro)
Knock-down reagent: single siRNA against human genes, 0.8 pmol siRNA per well
Timing: 72 h
Measurement: 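Luciferase light (ONE-Glo) measured on one replicate plate set and viability (CellTiter-Glo) on the other, scaled to a negative control siRNA, with robust z-scores and luciferase per cell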
Scale: total luciferase, z-score: higher = more reporter protein produced
Active means: 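Active when the median/MAD z-score for overall luciferase is greater than 3; a gene was taken forward for validation with new siRNAs if at least two of its three siRNAs passed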
Meaning of the calls: active = raised luciferase; inactive = no rise
This is an unselected part of about 59,000 deposited reagents. Over the whole deposit, about 1,510 (2.6%) are marked active. 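Calls use total luciferase alone and ignore viability, so some active siRNAs may act by altering cell number.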 A number with no mark means an inactive call. Reagents against one gene are numbered here. Not all columns of the deposit are shown. Reagent sequences are not shown.

total luciferase, z-score, by gene symbol and reagent
DYNLT1 (dynein light chain Tctex-type 1): #1 0.76; #2 -0.0959; #3 -0.544
SRPK1 (SRSF protein kinase 1): #1 1.9; #2 -0.236; #3 1.66
MTX3 (metaxin 3): #1 -0.726; #2 0.737; #3 3.82 (active)
KCNIP2 (potassium voltage-gated channel interacting protein 2): #1 2.48; #2 0.698; #3 -0.169
PEMT (phosphatidylethanolamine N-methyltransferase): #1 -0.994; #2 -0.654; #3 -1.32
IL1B (interleukin 1 beta): #1 -0.753; #2 0.943; #3 0.354
PLD6 (phospholipase D family member 6): #1 -1.14; #2 0.254; #3 0.641
HRK (harakiri, BCL2 interacting protein): #1 -1.18; #2 0.267; #3 1
NOL10 (nucleolar protein 10): #1 -1.37; #2 -0.335; #3 -0.574
MIR205HG (MIR205 host gene): #1 -0.0184; #2 -2.22; #3 0.0902
CMYA5 (cardiomyopathy associated 5): #1 -0.178; #2 -0.561; #3 0.631
TRGV5 (T cell receptor gamma variable 5): #1 -0.00069; #2 -0.0536; #3 -0.235
LARP7 (La ribonucleoprotein 7, transcriptional regulator): #1 -0.0252; #2 1.52; #3 0.0139
TAB3 (TGF-beta activated kinase 1 (MAP3K7) binding protein 3): #1 0.243; #2 0.946; #3 -1.13
RACK1P1 (RACK1 pseudogene 1): #1 -1.41; #2 -0.263; #3 2.14
MMP19 (matrix metallopeptidase 19): #1 -0.266; #2 0.0352; #3 -0.165
WNT9A (Wnt family member 9A): #1 2.44; #2 0.175; #3 -1.03
ARHGAP21 (Rho GTPase activating protein 21): #1 -0.0152; #2 -0.0774; #3 1.4
PALS1 (protein associated with LIN7 1, MAGUK p55 family member): #1 0.258; #2 0.918; #3 -2.7

A few values from above:
Under “total luciferase, z-score”, IL1B (interleukin 1 beta) #2 reads 0.943
Value for PALS1 (protein associated with LIN7 1, MAGUK p55 family member) #3 under “total luciferase, z-score”: -2.7
Under “total luciferase, z-score”, IL1B (interleukin 1 beta) #3 has 0.354
For “total luciferase, z-score”, PLD6 (phospholipase D family member 6) #1 has -1.14
Under “total luciferase, z-score”, MTX3 (metaxin 3) #3 has 3.82 (active)
